According to PubChem BioAssay AID504842 (National Center for Advancing Translational Sciences (NCATS), 2011):
In all, about 330,000 compounds went through this assay and about 100 (0.03%) were called active. The shares of active, inactive and inconclusive entries below differ from those in the screen. Calls come from the whole dose curve; as a rule, active = well fitted inhibition curve with a large enough effect; inconclusive = small, poorly fitted or top-dose-only effect; inactive = flat fitted curve, though single readings scatter. Potencies beside an inconclusive call are fits to weak or partial responses and may not hold up.

These compounds were tested on Chaperonin Mm-Cpn (Methanococcus maripaludis) (assay: Inhibitors of TCP-1 ring complex (TRiC) of Methanococcus maripaludis (MmCpn): qHTS). Conditions: purified Mm-Cpn ATPase, ADP Transcreener TR-FRET; activity, negative = inhibition: at the top concentration.
Procedure, shortened: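 TR-FRET (320 nm excitation; 590 and 665 nm emission) reports ADP made from 10 uM ATP by 25 nM enzyme; compounds were preincubated 10 min, reaction run 30 min, both at 37°C.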
% is set by controls: 0 for no effect and ±100 for the full control effect; potency is the fitted concentration of half-maximal effect.
Note: nearly all actives have a fitted effect of over 80% in size.
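Throughout, for Potency: enzyme at 25 nM with ATP substrate at 10 µM during the reaction.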

activity, negative = inhibition, inactive:
COc1ccc(/C=N/NC(=S)NC2CCS(=O)(=O)C2)cc1OC (stereo not given) 1.86%
O=C1NC2(CCCCC2)C(=O)N1/N=C/c1ccc(O)cc1O -2.32%
O=C(c1ccco1)N(CCC(c1ccccc1)c1ccco1)Cc1ccccc1 (stereo not given) -2.94%
CC1CCCN(S(=O)(=O)c2ccc3c(c2)CCN3C(=O)C2CCC2)C1 (stereo not given) -1.17%
Cn1c(N)c(C#N)c(C#N)c1-c1ccccc1 0.224%
CCOc1cccc(/C=N/NC(=S)Nc2cc(S(=O)(=O)N3CCOCC3)ccc2N2CCOCC2)c1O -6.06%
COc1ccc(S(=O)(=O)Nc2cccc(N(C)S(C)(=O)=O)c2)cc1C -1.03%

Potency, inconclusive:
c1ccc(CSc2nnc(SCc3ccccn3)s2)nc1 100 µM [inhibitor, single point]
CCc1ccccc1NC(=S)/N=C(\N)Nc1nc(C)c2cc(C)ccc2n1 89.1 µM [inhibitor, single point]
Cc1cc2cc(CNC(=O)CCC(=O)O)ccc2n1C 20 µM [inhibitor, single point]
COc1ccc2c(c1)C(=O)/C(=C/C=C/c1ccccc1)CC2 100 µM [inhibitor, single point]
N#Cc1nnn(Cc2ccccc2)c1N 15.8 µM [inhibitor, single point]
Cc1onc(-c2ccccc2Cl)c1C(=O)Nc1cccc(S(=O)(=O)N2CCOCC2)c1 20 µM [inhibitor, single point]
O=C(CSc1nnc(-c2ccco2)o1)c1ccccc1 15.8 µM [inhibitor, single point]
Cn1c(-c2ccccc2)c(C(=O)CCl)c2ccccc21 56.2 µM [inhibitor, single point]
CCN(CC)S(=O)(=O)c1cccc(N=Nc2c(O)c3ccccc3oc2=O)c1 20 µM [inhibitor, single point]
O=C(Nc1ccc(N2CCN(C(=O)c3ccco3)CC2)cc1)c1ccccc1 100 µM [inhibitor, partial curve, poor fit]
COC(=O)c1ccccc1NC(=O)C12CC3CC(C1)CC(n1cnc(Cl)n1)(C3)C2 100 µM [inhibitor, single point]
COc1ccc(-c2noc(N3CCC(C(=O)Nc4ccc(OC)cc4OC)CC3)n2)cc1 89.1 µM [inhibitor, single point]
N#Cc1c(NC(=O)c2ccccc2)sc2c1CCC2 100 µM [inhibitor, single point]

An excerpt from the list above, for reference:
Potency, inconclusive:
Cn1c(-c2ccccc2)c(C(=O)CCl)c2ccccc21 56.2 µM [inhibitor, single point]
CCN(CC)S(=O)(=O)c1cccc(N=Nc2c(O)c3ccccc3oc2=O)c1 20 µM [inhibitor, single point]
O=C(Nc1ccc(N2CCN(C(=O)c3ccco3)CC2)cc1)c1ccccc1 100 µM [inhibitor, partial curve, poor fit]
COC(=O)c1ccccc1NC(=O)C12CC3CC(C1)CC(n1cnc(Cl)n1)(C3)C2 100 µM [inhibitor, single point]
